Drawing on the supplement of paper PMC6411743, this text covers NP40-soluble protein abundance for 23 targets.

Protein sequences, listed by entry. Tags and fused reporters are not part of them. Lines headed by an entry give the natural chain unless they say otherwise; changes in a name come on top.
UniProt Q969Q5: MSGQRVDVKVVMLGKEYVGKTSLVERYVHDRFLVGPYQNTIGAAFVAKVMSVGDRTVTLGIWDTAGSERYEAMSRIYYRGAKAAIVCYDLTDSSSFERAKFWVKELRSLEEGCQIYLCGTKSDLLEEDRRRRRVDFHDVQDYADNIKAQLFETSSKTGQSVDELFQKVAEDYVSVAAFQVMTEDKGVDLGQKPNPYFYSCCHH
UniProt Q969T7: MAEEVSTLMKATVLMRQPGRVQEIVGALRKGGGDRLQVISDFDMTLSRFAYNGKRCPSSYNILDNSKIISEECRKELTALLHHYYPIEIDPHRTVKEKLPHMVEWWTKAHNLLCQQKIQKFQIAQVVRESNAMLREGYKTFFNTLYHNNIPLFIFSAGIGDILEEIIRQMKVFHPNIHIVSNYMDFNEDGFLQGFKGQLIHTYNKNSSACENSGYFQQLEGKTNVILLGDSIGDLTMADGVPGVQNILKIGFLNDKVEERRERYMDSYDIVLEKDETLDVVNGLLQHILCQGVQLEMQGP
UniProt Q96BS2: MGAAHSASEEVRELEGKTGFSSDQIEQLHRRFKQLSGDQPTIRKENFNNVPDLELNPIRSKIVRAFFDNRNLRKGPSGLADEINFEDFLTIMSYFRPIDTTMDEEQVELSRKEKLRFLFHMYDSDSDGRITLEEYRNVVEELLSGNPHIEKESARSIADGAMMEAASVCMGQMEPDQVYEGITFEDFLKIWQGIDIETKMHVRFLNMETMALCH
UniProt Q96A47: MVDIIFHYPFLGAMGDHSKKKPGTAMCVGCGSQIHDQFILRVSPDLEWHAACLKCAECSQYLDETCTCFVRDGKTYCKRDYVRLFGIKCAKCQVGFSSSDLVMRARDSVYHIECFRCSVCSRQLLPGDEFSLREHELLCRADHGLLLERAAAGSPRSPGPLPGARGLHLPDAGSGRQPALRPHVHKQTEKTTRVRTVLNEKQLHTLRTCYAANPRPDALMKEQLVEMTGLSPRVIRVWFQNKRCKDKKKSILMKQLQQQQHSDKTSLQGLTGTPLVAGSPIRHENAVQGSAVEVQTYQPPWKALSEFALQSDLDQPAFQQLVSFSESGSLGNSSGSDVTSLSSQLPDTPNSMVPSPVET
UniProt Q96BM9: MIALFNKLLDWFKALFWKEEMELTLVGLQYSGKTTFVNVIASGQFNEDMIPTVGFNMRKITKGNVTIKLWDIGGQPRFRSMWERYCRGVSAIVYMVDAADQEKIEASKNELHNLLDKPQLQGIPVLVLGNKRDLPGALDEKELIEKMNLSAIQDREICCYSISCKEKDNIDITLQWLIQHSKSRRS
UniProt Q96KP4: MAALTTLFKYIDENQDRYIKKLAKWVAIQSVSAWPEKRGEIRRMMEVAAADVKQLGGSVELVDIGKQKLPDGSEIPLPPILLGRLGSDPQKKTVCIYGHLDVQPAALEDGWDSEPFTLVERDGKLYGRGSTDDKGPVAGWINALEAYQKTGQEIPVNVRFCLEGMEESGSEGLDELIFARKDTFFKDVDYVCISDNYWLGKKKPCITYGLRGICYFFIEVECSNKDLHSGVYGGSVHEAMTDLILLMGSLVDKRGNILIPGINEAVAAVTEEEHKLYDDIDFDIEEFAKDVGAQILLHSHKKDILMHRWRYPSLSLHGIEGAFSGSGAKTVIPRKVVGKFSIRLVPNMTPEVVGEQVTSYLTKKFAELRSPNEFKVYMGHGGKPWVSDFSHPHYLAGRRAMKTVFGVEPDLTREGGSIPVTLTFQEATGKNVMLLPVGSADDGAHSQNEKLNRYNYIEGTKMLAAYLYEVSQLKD
UniProt Q96C86: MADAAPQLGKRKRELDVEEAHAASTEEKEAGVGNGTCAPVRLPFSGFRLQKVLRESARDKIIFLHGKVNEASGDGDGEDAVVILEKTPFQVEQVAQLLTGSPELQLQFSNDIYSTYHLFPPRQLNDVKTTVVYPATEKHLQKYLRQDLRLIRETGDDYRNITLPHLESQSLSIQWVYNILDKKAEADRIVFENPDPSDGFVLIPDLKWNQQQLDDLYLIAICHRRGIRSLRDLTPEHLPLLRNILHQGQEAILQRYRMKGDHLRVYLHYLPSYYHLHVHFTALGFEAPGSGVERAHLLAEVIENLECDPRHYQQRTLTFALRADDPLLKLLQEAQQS
UniProt Q93073: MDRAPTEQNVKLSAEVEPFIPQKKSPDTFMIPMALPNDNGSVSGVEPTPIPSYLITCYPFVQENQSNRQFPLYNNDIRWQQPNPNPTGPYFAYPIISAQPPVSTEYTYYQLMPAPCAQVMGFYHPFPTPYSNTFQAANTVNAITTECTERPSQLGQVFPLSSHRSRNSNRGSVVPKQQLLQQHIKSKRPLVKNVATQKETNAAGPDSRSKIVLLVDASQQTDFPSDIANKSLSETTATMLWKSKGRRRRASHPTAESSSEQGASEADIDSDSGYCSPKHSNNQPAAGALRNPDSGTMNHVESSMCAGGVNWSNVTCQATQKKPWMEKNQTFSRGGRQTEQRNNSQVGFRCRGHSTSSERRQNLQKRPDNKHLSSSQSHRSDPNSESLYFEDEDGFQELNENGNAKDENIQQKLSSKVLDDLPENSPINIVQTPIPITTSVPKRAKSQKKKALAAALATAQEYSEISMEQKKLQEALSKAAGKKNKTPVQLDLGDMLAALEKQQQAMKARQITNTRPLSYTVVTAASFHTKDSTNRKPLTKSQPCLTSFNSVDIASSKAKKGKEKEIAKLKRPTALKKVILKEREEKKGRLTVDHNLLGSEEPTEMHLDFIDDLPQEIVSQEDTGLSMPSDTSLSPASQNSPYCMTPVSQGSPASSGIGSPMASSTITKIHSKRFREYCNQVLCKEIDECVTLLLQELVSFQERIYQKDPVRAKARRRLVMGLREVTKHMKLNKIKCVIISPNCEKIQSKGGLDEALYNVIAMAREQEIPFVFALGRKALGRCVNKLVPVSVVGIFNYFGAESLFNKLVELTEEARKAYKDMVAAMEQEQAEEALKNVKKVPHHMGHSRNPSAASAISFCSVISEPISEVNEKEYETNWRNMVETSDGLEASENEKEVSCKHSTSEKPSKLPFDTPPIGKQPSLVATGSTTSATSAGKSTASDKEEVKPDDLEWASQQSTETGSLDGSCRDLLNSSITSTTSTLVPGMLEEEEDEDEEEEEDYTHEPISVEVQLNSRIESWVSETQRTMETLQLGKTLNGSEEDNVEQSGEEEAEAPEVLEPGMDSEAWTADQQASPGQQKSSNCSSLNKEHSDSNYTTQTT
UniProt Q96KP1: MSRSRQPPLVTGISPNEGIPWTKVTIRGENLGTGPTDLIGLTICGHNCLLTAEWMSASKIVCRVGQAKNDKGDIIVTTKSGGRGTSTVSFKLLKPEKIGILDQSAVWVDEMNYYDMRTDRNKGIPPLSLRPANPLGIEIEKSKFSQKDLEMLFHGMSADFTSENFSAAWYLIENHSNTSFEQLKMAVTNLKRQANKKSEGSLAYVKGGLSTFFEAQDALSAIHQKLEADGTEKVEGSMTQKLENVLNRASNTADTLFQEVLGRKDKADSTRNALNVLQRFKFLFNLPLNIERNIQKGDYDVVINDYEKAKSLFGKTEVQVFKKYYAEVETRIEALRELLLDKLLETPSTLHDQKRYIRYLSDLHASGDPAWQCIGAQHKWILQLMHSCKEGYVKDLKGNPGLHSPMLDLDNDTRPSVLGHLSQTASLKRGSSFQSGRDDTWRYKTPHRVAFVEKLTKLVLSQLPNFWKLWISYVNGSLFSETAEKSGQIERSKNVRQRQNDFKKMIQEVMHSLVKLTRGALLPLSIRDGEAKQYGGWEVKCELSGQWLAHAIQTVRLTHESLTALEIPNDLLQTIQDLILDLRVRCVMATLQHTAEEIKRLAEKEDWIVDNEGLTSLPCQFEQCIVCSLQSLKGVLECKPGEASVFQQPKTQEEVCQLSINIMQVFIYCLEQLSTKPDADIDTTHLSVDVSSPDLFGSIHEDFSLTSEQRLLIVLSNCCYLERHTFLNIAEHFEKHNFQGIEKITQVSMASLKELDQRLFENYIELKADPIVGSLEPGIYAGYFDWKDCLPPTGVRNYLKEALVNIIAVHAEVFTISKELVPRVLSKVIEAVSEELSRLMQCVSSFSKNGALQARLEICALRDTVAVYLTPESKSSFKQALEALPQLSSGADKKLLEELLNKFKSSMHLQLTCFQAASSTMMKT
UniProt Q96BK5: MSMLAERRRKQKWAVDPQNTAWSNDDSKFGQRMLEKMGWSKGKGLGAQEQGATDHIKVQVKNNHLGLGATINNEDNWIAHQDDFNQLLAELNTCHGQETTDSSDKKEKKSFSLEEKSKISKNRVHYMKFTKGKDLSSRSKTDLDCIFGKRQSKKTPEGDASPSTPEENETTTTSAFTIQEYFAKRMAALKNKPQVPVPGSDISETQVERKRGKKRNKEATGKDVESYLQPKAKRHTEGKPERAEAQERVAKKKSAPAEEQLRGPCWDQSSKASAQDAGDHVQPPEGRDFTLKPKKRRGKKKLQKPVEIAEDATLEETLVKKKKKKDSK
UniProt Q96C19: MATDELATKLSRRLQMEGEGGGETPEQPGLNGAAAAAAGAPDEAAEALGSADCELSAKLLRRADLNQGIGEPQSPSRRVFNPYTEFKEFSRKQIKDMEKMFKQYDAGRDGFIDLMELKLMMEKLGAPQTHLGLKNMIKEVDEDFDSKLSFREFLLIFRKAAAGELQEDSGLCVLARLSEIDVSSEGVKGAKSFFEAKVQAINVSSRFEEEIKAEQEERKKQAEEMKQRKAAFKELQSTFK
UniProt Q96MW5: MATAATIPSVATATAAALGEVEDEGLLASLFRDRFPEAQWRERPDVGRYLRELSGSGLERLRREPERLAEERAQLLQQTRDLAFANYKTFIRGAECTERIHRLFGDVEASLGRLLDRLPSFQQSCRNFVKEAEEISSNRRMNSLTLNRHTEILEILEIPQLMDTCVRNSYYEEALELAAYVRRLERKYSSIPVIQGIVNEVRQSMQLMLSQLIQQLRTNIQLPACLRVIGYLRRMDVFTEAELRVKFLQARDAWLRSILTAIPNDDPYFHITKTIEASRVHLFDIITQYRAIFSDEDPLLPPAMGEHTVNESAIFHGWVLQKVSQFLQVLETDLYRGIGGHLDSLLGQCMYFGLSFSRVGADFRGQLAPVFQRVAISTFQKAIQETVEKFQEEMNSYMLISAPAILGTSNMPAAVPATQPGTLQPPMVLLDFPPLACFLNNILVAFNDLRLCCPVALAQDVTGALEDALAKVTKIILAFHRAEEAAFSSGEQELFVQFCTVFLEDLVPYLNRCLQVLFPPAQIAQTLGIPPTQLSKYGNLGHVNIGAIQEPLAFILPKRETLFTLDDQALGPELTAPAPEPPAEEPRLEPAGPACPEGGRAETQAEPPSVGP
UniProt Q96JC1: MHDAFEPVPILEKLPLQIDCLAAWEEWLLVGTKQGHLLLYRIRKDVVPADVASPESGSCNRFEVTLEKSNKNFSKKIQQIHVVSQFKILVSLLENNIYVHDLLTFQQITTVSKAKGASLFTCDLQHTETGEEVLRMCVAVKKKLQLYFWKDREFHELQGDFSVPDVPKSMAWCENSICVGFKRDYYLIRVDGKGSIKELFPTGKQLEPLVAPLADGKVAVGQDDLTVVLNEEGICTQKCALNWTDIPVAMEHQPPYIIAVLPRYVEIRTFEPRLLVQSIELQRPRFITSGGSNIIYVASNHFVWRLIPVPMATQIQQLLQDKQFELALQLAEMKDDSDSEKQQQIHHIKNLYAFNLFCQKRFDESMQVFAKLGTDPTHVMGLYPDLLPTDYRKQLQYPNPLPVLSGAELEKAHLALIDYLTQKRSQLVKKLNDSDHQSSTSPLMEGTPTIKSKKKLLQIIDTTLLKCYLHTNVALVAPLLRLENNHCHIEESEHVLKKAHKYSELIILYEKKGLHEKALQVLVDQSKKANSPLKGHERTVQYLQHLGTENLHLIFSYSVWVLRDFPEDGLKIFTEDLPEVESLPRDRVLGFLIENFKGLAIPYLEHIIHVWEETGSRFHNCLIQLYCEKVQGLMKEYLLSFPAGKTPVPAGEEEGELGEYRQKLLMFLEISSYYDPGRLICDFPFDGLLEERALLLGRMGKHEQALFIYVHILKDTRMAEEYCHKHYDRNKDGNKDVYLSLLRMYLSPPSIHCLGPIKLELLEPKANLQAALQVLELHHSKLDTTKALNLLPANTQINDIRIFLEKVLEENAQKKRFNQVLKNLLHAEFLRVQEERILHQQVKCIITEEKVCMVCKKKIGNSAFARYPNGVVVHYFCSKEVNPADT
UniProt Q96DU3: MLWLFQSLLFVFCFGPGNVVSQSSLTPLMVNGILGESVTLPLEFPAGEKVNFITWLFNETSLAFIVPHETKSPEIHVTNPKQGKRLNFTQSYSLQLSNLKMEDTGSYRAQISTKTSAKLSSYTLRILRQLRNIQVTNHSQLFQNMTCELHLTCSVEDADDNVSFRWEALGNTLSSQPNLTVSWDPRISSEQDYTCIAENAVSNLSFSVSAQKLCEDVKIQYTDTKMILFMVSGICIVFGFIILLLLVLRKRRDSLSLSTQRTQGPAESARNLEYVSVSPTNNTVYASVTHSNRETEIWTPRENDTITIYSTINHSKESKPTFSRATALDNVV

± gives the standard deviation of the averaged measurements. The entries are a selection whose mix differs from that of the whole data set. Small differences around the control level are noise.

Compound in the test: Nc1ncnc2c1ncn2[C@@H]1O[C@H](COP(=O)(O)OP(=O)(O)NP(=O)(O)O)[C@@H](O)[C@H]1O [adenylyl imidodiphosphate]
The test is described as follows: NP40-soluble protein abundance relative to vehicle (solubility fold change) (ratio); higher = more soluble protein in presence of AMP-PNP. The method, boiled down:
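Eight concentrations, 0.1 to 10 mM, were tested on Jurkat crude lysate for 10 min at room temperature and then 3 min at 37 °C, in three independent experiments. The lysate was solubilised with 0.8% NP40 and benzonase, ultracentrifuged, and the supernatant TMT-labelled for LC-MS/MS. Each value is the fold change against the detergent-processed vehicle in its own replicate, from vsn-normalised intensities.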

RAB24 (UniProt Q969Q5): the NP40-soluble protein abundance was found to be 1.01 ± 0.03 (concentration: 0.1mM) and 1 ± 0.013 (concentration: 0.5mM).
As to UniProt Q96HD1 and related entries, the NP40-soluble protein abundance reads like this: (concentration: 0.1mM) 1.01 ± 0.014; (concentration: 0.5mM) 0.978 ± 0.053.
On the same counts, the results for SIPA1 (UniProt Q96FS4) are 0.994 ± 0.018 and 1 ± 0.02.
On the same counts, the results for UniProt Q969T7 and related entries are 0.984 ± 0.038 and 0.949 ± 0.058.
As for TESC (UniProt Q96BS2), the NP40-soluble protein abundance was determined as 0.974 ± 0.029 (concentration: 0.1mM) and 0.953 ± 0.045 (concentration: 0.5mM).
Consider ISL2 (UniProt Q96A47), for which the NP40-soluble protein abundance was 0.988 ± 0.019 (concentration: 0.1mM) and 0.998 ± 0.036 (concentration: 0.5mM).
In the same order, the values of ARL8A (UniProt Q96BM9) are 0.982 ± 0.039 and 0.993 ± 0.022.
For UniProt Q96KP4 and related entries, the NP40-soluble protein abundance runs as follows: (concentration: 0.1mM) 1 ± 0.021; (concentration: 0.5mM) 1.03 ± 0.01.
On to UniProt Q96JG8 and related entries, for which the NP40-soluble protein abundance is 1.007 ± 0.0094 (concentration: 0.1mM) and 1.01 ± 0.017 (concentration: 0.5mM).
Turning to DCPS (UniProt Q96C86), the NP40-soluble protein abundance was 0.977 ± 0.022 (concentration: 0.1mM) and 0.966 ± 0.024 (concentration: 0.5mM).
Take UniProt Q93073 and related entries: the NP40-soluble protein abundance (concentration: 0.1mM) worked out at 1.006 ± 0.0075 and the NP40-soluble protein abundance (concentration: 0.5mM) is 0.998 ± 0.026.
As to EXOC2 (UniProt Q96KP1), the NP40-soluble protein abundance (concentration: 0.1mM) was 1.05 ± 0.08 and the NP40-soluble protein abundance (concentration: 0.5mM) stood at 0.982 ± 0.033.
For PINX1 (UniProt Q96BK5), the NP40-soluble protein abundance by setting is: (concentration: 0.1mM) 1.06 ± 0.054; (concentration: 0.5mM) 1.13 ± 0.12.
UniProt Q96AG3 and related entries: the NP40-soluble protein abundance worked out at 1 ± 0.029 (concentration: 0.1mM) and 1.01 ± 0.017 (concentration: 0.5mM).
In the same order, the values of UniProt Q96K17 are 0.981 ± 0.019 and 1.02 ± 0.031.
Regarding LPP (UniProt Q93052), the NP40-soluble protein abundance is, setting by setting: (concentration: 0.1mM) 0.99 ± 0.028; (concentration: 0.5mM) 0.973 ± 0.047.
On to EFHD2 (UniProt Q96C19), for which the NP40-soluble protein abundance came out at 0.958 ± 0.024 (concentration: 0.1mM) and 0.95 ± 0.042 (concentration: 0.5mM).
On to DCUN1D1 (UniProt Q96GG9), for which the NP40-soluble protein abundance came to 0.998 ± 0.017 (concentration: 0.1mM) and 1.02 ± 0.031 (concentration: 0.5mM).
In the case of PEX13 (UniProt Q92968), the NP40-soluble protein abundance runs as follows: (concentration: 0.1mM) 1.01 ± 0.12; (concentration: 0.5mM) 0.961 ± 0.15.
In the case of COG8 (UniProt Q96MW5), the NP40-soluble protein abundance is 1 ± 0.019 (concentration: 0.1mM) and 0.976 ± 0.014 (concentration: 0.5mM).
Turning to UniProt Q96JC1 and related entries, the NP40-soluble protein abundance reads like this: (concentration: 0.1mM) 1.03 ± 0.017; (concentration: 0.5mM) 1.01 ± 0.042.
UniProt Q96ER3 and related entries: the NP40-soluble protein abundance (concentration: 0.1mM) came out at 0.9746 ± 0.0076 and the NP40-soluble protein abundance (concentration: 0.5mM) amounted to 0.99 ± 0.011.
Turning to UniProt Q96DU3 and related entries, the NP40-soluble protein abundance worked out at 0.995 ± 0.016 (concentration: 0.1mM) and 0.996 ± 0.019 (concentration: 0.5mM).
